Experiment [1] has as its target poly (ADP-ribose) polymerase 1 (human (endogenous in UWB1.289 cells and patient tumors)) (UniProt P09874). Kind of experiment: pull-down; c-olaparib or c-rucaparib beads incubated with lysates of frozen BRCA1-proficient or BRCA1-deficient ovarian cancer patient tumor samples ±20 μM free drug; eluates immunoblotted.
The target is the same in experiment [2]. Kind of experiment: pull-down; c-olaparib or c-rucaparib beads incubated with UWB or UWB+B cell lysate ±20 μM free drug; eluates immunoblotted.
Experiment [3] has as its target Ku70 (human (endogenous in UWB1.289 cells and patient tumors)) (UniProt P12956). Kind of experiment: co-IP; immunoprecipitation with IgG or Ku70 antibodies from UWB and UWB+B cell lysates; endogenous proteins, Western blot of eluates.

By UniProt entry, the sequences of proteins in these tests, tags left out.
UniProt P09874: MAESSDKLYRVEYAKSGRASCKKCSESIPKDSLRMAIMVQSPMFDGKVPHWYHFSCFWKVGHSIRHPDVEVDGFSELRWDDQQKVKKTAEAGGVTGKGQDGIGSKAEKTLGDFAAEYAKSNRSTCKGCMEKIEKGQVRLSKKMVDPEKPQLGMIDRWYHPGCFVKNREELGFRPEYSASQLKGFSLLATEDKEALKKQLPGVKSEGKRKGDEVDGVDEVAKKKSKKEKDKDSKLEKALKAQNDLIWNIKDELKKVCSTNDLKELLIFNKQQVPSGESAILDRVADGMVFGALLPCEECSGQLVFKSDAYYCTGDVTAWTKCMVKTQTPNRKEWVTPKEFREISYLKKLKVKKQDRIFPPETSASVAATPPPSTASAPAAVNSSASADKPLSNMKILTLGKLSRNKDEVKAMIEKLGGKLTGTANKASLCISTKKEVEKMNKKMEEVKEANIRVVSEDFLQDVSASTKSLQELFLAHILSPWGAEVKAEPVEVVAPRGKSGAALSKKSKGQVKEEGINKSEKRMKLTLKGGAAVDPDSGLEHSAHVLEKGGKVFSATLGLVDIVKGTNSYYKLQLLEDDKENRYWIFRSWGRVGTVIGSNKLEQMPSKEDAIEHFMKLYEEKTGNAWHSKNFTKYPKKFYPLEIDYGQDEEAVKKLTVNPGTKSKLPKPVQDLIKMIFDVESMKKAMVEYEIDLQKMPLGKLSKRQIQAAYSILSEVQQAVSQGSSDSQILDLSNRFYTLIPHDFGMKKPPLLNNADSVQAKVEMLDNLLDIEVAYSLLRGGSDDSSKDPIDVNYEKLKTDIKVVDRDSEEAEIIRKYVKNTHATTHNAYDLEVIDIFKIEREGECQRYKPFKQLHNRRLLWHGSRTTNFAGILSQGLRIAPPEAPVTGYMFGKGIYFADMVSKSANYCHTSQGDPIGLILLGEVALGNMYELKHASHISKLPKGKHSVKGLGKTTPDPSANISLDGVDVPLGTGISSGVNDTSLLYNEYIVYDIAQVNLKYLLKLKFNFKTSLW
UniProt Q9UGN5: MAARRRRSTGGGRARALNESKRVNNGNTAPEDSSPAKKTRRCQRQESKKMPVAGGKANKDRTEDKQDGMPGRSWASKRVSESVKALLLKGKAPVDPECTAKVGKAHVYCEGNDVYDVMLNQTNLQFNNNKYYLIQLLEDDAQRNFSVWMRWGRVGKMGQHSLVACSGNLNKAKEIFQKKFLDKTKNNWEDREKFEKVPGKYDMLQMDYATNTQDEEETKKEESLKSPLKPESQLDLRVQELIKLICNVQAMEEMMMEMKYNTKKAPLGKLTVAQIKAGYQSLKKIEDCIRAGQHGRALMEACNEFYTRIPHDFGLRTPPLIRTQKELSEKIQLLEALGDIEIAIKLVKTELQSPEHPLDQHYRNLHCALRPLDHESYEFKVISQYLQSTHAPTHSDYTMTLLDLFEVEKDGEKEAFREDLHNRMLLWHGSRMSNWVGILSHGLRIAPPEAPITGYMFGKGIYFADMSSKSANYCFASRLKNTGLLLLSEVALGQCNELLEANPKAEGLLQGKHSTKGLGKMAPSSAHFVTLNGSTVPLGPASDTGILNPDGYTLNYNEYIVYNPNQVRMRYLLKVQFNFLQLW

Results are given in words; binding and its absence hold for the method and conditions named. Binding seen in cells or lysates may run through a third protein. Some entries that bind do so weakly or less than the wild type.

Take Ku80 (from UniProt P13010 1-732): the binding result in experiment [1] and in experiment [2] was “binds” each time.
Take PARP2 (from UniProt Q9UGN5 1-583): in experiment [3], the binding entry was “binds”.

These data come from paper PMC9636579.
